# From the supplement of paper PMC8728848
# Some of the results follow.
# B1: Epa19 (Candida glabrata) (protein)
# chain: MGSSHHHHHHSSGLVPRGSHMASSKDPTRFPIGCSPQVLKTQPGLAVKLYSYGHPVPGCSYITYQYPDFPRSGYKKERKLADITGVNGKIDIDLKPNDPCRVLTGHLPSNYNYPDTLTYTNFTMILYGYFQPKVTGYHTFNLEADDLLFMNLGAGNAFDCCKAESTLDNFGNYQSYSLWGSDYAKANITVFLVSGVYYPIRLFYVNRDNNAVIDFSFTTEFDKEKVHDFTSYFFSASDGEQCPGSV
# Tests used:
# Assay in all cases: glycan array binding signal (z-score within array); higher = stronger binding
# Details in all cases: glycan notation: IUPAC condensed, linker removed
# [1] = target: Fuc(a1-2)[GalNAc(b1-3)]Gal
# Procedure, shortened: (§1)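 Glycan array data were curated from 3228 arrays in the Consortium for Functional Glycomics database and kept only where the protein sequence was available. Glycan names were converted to IUPAC-condensed notation, and columns mapping to the same glycan were averaged. The binding signal is a within-array Z-score, averaged across arrays of the same protein sequence at different concentrations or buffers and across linkers. Negative Z-scores can be read as non-binding.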
# Fuc(a1-3)GlcNAc = target: Fuc(a1-3)GlcNAc
# Procedure, shortened: as §1
# [2] = target: Fuc(a1-3)[Gal(b1-4)]Glc6S
# Procedure, shortened: as §1
# [3] = target: Fuc(a1-3)[Gal(b1-4)]GlcNAc
# Procedure, shortened: as §1
# [4] = target: Fuc(a1-3)[Gal(b1-4)]GlcNAc(b1-2)Man
# Procedure, shortened: as §1
# [5] = target: Fuc(a1-3)[Gal(b1-4)]GlcNAc(b1-2)Man(a1-3)[Fuc(a1-3)[Gal(b1-4)]GlcNAc(b1-2)Man(a1-6)]Man(b1-4)GlcNAc(b1-4)GlcNAc
# Procedure, shortened: as §1
# [6] = target: Fuc(a1-3)[Gal(b1-4)]GlcNAc(b1-2)Man(a1-3)[Fuc(a1-3)[Gal(b1-4)]GlcNAc(b1-2)Man(a1-6)]Man(b1-4)GlcNAc(b1-4)[Fuc(a1-6)]GlcNAc
# Procedure, shortened: as §1
# [7] = target: Fuc(a1-3)[Gal(b1-4)]GlcNAc(b1-3)Gal(b1-3)[Fuc(a1-4)]GlcNAc
# Procedure, shortened: as §1
# [8] = target: Fuc(a1-3)[Gal(b1-4)]GlcNAc(b1-3)Gal(b1-4)[Fuc(a1-3)]GlcNAc
# Procedure, shortened: as §1
# [9] = target: Fuc(a1-3)[Gal(b1-4)]GlcNAc(b1-3)Gal(b1-4)[Fuc(a1-3)]GlcNAc(b1-3)Gal(b1-4)[Fuc(a1-3)]GlcNAc
# Procedure, shortened: as §1
# [10] = target: Fuc(a1-3)[Gal(b1-4)]GlcNAc(b1-3)GalNAc
# Procedure, shortened: as §1
# [11] = target: Fuc(a1-3)[Gal(b1-4)]GlcNAc(b1-6)GalNAc
# Procedure, shortened: as §1
# [12] = target: Fuc(a1-3)[Gal(b1-4)]GlcNAc(b1-6)[Gal(b1-3)GlcNAc(b1-3)]Gal(b1-4)Glc
# Procedure, shortened: as §1
# [13] = target: Fuc(a1-3)[Gal(b1-4)]GlcNAc6S
# Procedure, shortened: as §1
# [14] = target: Fuc(a1-3)[Gal3S(b1-4)]Glc
# Procedure, shortened: as §1
# [15] = target: Fuc(a1-3)[Gal3S(b1-4)]GlcNAc
# Procedure, shortened: as §1
# [16] = target: Fuc(a1-3)[Gal3S(b1-4)]GlcNAc6S
# Procedure, shortened: as §1
# [17] = target: Fuc(a1-3)[GalNAc(b1-4)]GlcNAc
# Procedure, shortened: as §1
# [18] = target: Fuc(a1-3)[GalNAc(b1-4)]GlcNAc6S
# Procedure, shortened: as §1
# Fuc(a1-4)GlcNAc = target: Fuc(a1-4)GlcNAc
# Procedure, shortened: as §1
# Fuc(b1-3)GlcNAc = target: Fuc(b1-3)GlcNAc
# Procedure, shortened: as §1
# Gal(a1-2)Gal = target: Gal(a1-2)Gal
# Procedure, shortened: as §1
# Gal(a1-3)Gal = target: Gal(a1-3)Gal
# Procedure, shortened: as §1
# Gal(a1-3)Gal(b1-3)GlcNAc = target: Gal(a1-3)Gal(b1-3)GlcNAc
# Procedure, shortened: as §1
# [19] = target: Gal(a1-3)Gal(b1-3)GlcNAc(b1-2)Man
# Procedure, shortened: as §1
# [20] = target: Gal(a1-3)Gal(b1-3)GlcNAc(b1-2)Man(a1-3)[Gal(a1-3)Gal(b1-3)GlcNAc(b1-2)Man(a1-6)]Man(b1-4)GlcNAc(b1-4)GlcNAc
# Procedure, shortened: as §1
# [21] = target: Gal(a1-3)Gal(b1-3)GlcNAc(b1-3)GalNAc
# Procedure, shortened: as §1
# [22] = target: Gal(a1-3)Gal(b1-3)GlcNAc(b1-6)GalNAc
# Procedure, shortened: as §1
# [23] = target: Gal(a1-3)Gal(b1-3)[Fuc(a1-4)]GlcNAc(b1-2)Man(a1-3)[Gal(a1-3)Gal(b1-3)[Fuc(a1-4)]GlcNAc(b1-2)Man(a1-6)]Man(b1-4)GlcNAc(b1-4)GlcNAc
# Procedure, shortened: as §1
# Gal(a1-3)Gal(b1-4)Glc = target: Gal(a1-3)Gal(b1-4)Glc
# Procedure, shortened: as §1
# Gal(a1-3)Gal(b1-4)GlcNAc = target: Gal(a1-3)Gal(b1-4)GlcNAc
# Procedure, shortened: as §1
# [24] = target: Gal(a1-3)Gal(b1-4)GlcNAc(b1-2)Man
# Procedure, shortened: as §1
# [25] = target: Gal(a1-3)Gal(b1-4)GlcNAc(b1-2)Man(a1-3)[Gal(a1-3)Gal(b1-4)GlcNAc(b1-2)Man(a1-6)]Man(b1-4)GlcNAc(b1-4)GlcNAc
# Procedure, shortened: as §1
# [26] = target: Gal(a1-3)Gal(b1-4)GlcNAc(b1-3)GalNAc
# Procedure, shortened: as §1
# [27] = target: Gal(a1-3)Gal(b1-4)GlcNAc(b1-6)GalNAc
# Procedure, shortened: as §1
# [28] = target: Gal(a1-3)Gal(b1-4)[Fuc(a1-3)]GlcNAc
# Procedure, shortened: as §1
# [29] = target: Gal(a1-3)Gal(b1-4)[Fuc(a1-3)]GlcNAc(b1-2)Man(a1-3)[Gal(a1-3)Gal(b1-4)[Fuc(a1-3)]GlcNAc(b1-2)Man(a1-6)]Man(b1-4)GlcNAc(b1-4)GlcNAc
# Procedure, shortened: as §1
binder,measurement,setting,value
B1,glycan array binding signal (z-score),[1],0.438
same,glycan array binding signal (z-score),Fuc(a1-3)GlcNAc,-0.754
same,glycan array binding signal (z-score),[2],0.74
same,glycan array binding signal (z-score),[3],-0.519
same,glycan array binding signal (z-score),[4],-0.217
same,glycan array binding signal (z-score),[5],-0.077
same,glycan array binding signal (z-score),[6],0.588
same,glycan array binding signal (z-score),[7],-0.329
same,glycan array binding signal (z-score),[8],-0.007
same,glycan array binding signal (z-score),[9],-0.773
same,glycan array binding signal (z-score),[10],0.591
same,glycan array binding signal (z-score),[11],1.03
same,glycan array binding signal (z-score),[12],-0.642
same,glycan array binding signal (z-score),[13],0.42
same,glycan array binding signal (z-score),[14],0.684
same,glycan array binding signal (z-score),[15],-0.083
same,glycan array binding signal (z-score),[16],0.506
same,glycan array binding signal (z-score),[17],-0.04
same,glycan array binding signal (z-score),[18],-0.231
same,glycan array binding signal (z-score),Fuc(a1-4)GlcNAc,-0.053
same,glycan array binding signal (z-score),Fuc(b1-3)GlcNAc,-0.531
same,glycan array binding signal (z-score),Gal(a1-2)Gal,-0.54
same,glycan array binding signal (z-score),Gal(a1-3)Gal,1.19
same,glycan array binding signal (z-score),Gal(a1-3)Gal(b1-3)GlcNAc,0.407
same,glycan array binding signal (z-score),[19],-0.027
same,glycan array binding signal (z-score),[20],0.439
same,glycan array binding signal (z-score),[21],-0.091
same,glycan array binding signal (z-score),[22],0.332
same,glycan array binding signal (z-score),[23],-0.175
same,glycan array binding signal (z-score),Gal(a1-3)Gal(b1-4)Glc,-0.098
same,glycan array binding signal (z-score),Gal(a1-3)Gal(b1-4)GlcNAc,-0.173
same,glycan array binding signal (z-score),[24],-0.692
same,glycan array binding signal (z-score),[25],-0.409
same,glycan array binding signal (z-score),[26],0.181
same,glycan array binding signal (z-score),[27],-0.287
same,glycan array binding signal (z-score),[28],-0.45
same,glycan array binding signal (z-score),[29],2.47

# 2 entries from above, tab-delimited.
binder	measurement	setting	value
B1	glycan array binding signal (z-score)	Fuc(a1-4)GlcNAc	-0.053
same	glycan array binding signal (z-score)	[20]	0.439
